Literature values as cited in US8617906B2, “Identification and screening of triptolide target molecules” (priority 2004, dated 2013).
At least one structure is not confirmed: it was looked up by name or label, or the drawing left a doubt.

What was measured:
[1] = rat, in vivo; cited from earlier work
[2] = test system: MMM progenitor colonies; conditions: cited from earlier work
[3] = test system: AML cells; conditions: cited from earlier work
[4] = test system: Akt/PKB; conditions: cited from earlier work

## C=CC[C@@H]1/C=C(\C)C[C@H](C)C[C@H](OC)[C@H]2O[C@@](O)(C(=O)C(=O)N3CCCC[C@H]3C(=O)O[C@H](/C(C)=C/[C@@H]3CC[C@@H](O)[C@H](OC)C3)[C@H](C)[C@@H](O)CC1=O)[C@H](C)C[C@@H]2OC [FK506]
[1]
  neurotrophic activity: shows neurotrophic activity

## O=c1cc(N2CCOCC2)oc2c(-c3ccccc3)cccc12 [LY294002]
[2]
  sensitivity of MMM progenitor colonies: highly sensitive

## COC[C@H]1OC(=O)c2coc3c2[C@@]1(C)C1=C(C3=O)[C@@H]2CCC(=O)[C@@]2(C)C[C@H]1OC(C)=O [wortmannin]
[3]
  VEGF-induced colony formation / clonogenic response: inhibits VEGF-induced colony formation in a concentration-dependent fashion
[4]
  VEGF-stimulated phosphorylation of Akt/PKB: inhibited
